These are yes or no findings as the source states them, for the method shown. Binding seen in cells or lysates may run through a third protein. A result given as binding can be weak or reduced; the word gives no strength.
Target: Flag-tagged PEAK1 ΔN1 (human) (UniProt Q9H792)
Test: co-IP; Flag-tagged PEAK1 and deletion mutants expressed in HEK293T; anti-FLAG M2 agarose IP from lysate (normal lysis buffer), 4 °C 2–4 h; Western blot for CAMK2D or CAMK2G

The chains behind the UniProt entries cited, without tags or fusion partners. Where a name states a change or a piece, a line headed by the entry shows the natural chain unless it says otherwise.
UniProt Q9H792: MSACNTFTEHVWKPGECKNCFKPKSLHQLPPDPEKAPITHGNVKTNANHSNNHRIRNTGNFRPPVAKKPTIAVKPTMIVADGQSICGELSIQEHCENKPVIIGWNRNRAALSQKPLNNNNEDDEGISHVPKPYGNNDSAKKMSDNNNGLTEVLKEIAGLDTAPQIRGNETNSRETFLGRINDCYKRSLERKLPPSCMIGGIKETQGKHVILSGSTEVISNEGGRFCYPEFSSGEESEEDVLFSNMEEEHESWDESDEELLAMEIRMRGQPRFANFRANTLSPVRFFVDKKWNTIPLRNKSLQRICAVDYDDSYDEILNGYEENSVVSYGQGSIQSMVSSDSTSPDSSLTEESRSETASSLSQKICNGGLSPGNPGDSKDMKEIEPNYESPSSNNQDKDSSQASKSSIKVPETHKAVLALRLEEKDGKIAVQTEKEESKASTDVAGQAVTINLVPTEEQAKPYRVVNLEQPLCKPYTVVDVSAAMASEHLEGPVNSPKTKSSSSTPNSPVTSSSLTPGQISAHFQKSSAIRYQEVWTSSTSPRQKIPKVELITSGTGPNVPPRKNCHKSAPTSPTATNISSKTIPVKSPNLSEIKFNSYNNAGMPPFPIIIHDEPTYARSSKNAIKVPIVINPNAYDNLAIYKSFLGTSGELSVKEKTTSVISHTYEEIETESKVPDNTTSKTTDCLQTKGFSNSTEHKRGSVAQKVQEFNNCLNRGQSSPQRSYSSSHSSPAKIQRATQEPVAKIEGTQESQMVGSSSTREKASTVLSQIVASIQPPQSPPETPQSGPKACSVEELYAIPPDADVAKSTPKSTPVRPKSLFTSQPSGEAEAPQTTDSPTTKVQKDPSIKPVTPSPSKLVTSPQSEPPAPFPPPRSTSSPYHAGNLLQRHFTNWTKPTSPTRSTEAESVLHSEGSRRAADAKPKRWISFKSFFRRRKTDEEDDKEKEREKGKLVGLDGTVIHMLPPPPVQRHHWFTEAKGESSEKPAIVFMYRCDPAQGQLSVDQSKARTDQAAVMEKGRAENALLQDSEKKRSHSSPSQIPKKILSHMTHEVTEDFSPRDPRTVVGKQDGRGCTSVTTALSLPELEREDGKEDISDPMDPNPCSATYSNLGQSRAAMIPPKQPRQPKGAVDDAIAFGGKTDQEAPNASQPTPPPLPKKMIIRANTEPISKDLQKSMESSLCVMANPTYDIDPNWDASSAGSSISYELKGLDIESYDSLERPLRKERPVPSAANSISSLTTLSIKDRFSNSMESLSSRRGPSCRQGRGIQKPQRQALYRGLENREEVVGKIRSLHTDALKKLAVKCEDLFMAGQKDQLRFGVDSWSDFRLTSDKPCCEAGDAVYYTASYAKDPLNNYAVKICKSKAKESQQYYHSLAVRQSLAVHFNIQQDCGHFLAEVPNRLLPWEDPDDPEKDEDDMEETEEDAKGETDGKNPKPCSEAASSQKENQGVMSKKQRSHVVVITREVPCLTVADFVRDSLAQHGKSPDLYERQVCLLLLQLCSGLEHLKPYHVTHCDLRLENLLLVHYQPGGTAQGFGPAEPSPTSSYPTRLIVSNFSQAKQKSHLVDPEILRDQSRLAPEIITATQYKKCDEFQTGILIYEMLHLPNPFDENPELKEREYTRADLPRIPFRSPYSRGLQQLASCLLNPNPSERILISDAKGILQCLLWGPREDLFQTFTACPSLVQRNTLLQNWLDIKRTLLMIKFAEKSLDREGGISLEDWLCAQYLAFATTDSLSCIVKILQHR
UniProt Q13557: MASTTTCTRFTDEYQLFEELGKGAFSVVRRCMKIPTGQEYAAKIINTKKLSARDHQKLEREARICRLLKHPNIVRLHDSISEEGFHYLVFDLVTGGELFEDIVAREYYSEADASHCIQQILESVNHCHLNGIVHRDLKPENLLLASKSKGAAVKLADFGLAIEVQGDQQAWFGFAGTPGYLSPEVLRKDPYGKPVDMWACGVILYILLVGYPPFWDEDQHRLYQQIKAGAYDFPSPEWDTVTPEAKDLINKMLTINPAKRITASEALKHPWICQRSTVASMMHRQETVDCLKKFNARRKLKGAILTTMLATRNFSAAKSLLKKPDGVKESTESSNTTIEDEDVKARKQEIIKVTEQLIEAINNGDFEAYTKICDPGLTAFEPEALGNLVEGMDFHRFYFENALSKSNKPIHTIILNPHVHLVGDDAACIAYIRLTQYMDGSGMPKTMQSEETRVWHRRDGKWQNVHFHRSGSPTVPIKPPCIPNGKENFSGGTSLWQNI

Substance: calcium/calmodulin-dependent protein kinase 2 (CAMK2)D, endogenous in HEK293T (from UniProt Q13557 1-499) (enzyme)
- binding: binds
